# Results are given in words; binding and its absence hold for the method and conditions named.
# B1: CH01 (antibody, V domains shown)
# VH: EVQLVESGANVVRPGGSLRLSCKASGFIFENFGFSWVRQAPGKGLQWVAGLNWNGGDTRYADSVKGRFRMSRDNSRNFVYLDMDKVGVDDTAFYYCARGTDYTIDDAGIHYQGSGTFWYFDLWGRGTLVSVSS
# VL: EIVLTQSPGTLSLSPGERATLSCRASHNVHPKYFAWYQQKPGQSPRLLIYGGSTRAAGIPGKFSGSGSGTDFTLTISRVDPEDFAVYYCQQYGGSPYTFGQGTKVEI
# Experiments:
# Assay in all cases: Athena autoantigen assay
# [1] = target: Cent B
# [2] = target: Histone
# [3] = target: Jo 1
# [4] = target: RNP
# [5] = target: SSA
# [6] = target: Scl 70
# [7] = substrate: SSB
binder,measurement,setting,value
B1,binding,[1],no binding (tested: score 22 at 50 ug/ml)
same,binding,[2],no binding (tested: score 26 at 50 ug/ml)
same,binding,[3],no binding (tested: score 3.5 at 50 ug/ml)
same,binding,[4],no binding (tested: score 8 at 50 ug/ml)
same,binding,[5],no binding (tested: score 8 at 50 ug/ml)
same,binding,[6],no binding (tested: score 4 at 50 ug/ml)
same,binding,[7],no binding (tested: score 5.5 at 50 ug/ml)

# Reference: US20160271244A1
